Our source for the binding values is publication PMC7706265.

By UniProt entry, the sequences of proteins in these tests, tags left out.
UniProt Q5DTW7: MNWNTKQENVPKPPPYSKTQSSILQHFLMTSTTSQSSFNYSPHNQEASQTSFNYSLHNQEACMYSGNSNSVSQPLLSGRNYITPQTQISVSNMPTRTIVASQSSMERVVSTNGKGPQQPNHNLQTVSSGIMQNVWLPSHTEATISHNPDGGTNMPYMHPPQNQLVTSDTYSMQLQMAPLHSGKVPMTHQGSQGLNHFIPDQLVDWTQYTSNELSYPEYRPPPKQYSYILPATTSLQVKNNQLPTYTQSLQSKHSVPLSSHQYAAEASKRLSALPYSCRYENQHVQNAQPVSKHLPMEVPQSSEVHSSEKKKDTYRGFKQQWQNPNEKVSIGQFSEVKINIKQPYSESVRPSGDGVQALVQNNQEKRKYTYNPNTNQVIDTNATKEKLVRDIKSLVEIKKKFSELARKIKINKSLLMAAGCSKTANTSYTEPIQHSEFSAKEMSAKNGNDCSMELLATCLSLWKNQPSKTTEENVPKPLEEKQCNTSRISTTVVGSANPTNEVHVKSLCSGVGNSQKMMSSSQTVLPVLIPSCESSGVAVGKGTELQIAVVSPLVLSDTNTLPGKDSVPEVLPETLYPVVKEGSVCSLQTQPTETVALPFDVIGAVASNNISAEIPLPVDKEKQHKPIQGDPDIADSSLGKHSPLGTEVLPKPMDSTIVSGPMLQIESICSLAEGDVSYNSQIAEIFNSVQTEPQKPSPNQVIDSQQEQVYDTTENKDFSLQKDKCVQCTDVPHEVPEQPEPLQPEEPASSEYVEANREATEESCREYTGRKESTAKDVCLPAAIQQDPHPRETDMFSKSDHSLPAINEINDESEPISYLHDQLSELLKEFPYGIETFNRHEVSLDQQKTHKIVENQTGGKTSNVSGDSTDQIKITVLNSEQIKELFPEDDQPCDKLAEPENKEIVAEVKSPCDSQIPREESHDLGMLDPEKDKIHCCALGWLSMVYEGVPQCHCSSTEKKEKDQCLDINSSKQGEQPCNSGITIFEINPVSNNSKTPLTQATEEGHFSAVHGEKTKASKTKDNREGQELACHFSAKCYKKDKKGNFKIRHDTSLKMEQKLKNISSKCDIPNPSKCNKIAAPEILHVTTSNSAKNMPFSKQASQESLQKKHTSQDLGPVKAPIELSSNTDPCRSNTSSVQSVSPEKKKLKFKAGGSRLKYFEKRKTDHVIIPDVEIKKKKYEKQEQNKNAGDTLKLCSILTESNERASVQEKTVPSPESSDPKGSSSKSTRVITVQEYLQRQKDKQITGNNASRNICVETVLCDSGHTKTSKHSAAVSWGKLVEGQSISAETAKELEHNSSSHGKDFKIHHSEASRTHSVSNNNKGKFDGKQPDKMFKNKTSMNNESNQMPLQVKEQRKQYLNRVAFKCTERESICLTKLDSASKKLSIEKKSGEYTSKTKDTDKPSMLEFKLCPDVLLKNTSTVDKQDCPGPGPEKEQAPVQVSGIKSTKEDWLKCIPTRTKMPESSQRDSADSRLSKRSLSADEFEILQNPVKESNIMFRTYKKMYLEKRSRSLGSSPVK
UniProt P70288: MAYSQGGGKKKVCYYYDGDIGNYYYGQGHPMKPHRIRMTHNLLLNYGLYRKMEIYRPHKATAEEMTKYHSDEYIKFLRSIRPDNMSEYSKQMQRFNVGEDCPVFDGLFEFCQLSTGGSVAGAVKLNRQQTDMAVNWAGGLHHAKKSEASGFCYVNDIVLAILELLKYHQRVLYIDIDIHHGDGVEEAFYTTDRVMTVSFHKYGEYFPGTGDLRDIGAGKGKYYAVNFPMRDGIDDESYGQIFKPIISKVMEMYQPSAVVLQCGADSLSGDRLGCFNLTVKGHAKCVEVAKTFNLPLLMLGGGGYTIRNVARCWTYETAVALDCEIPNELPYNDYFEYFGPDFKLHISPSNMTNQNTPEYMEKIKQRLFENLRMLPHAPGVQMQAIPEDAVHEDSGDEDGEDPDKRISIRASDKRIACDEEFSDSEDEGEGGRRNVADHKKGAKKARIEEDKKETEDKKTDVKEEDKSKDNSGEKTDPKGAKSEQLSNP
UniProt A2A791: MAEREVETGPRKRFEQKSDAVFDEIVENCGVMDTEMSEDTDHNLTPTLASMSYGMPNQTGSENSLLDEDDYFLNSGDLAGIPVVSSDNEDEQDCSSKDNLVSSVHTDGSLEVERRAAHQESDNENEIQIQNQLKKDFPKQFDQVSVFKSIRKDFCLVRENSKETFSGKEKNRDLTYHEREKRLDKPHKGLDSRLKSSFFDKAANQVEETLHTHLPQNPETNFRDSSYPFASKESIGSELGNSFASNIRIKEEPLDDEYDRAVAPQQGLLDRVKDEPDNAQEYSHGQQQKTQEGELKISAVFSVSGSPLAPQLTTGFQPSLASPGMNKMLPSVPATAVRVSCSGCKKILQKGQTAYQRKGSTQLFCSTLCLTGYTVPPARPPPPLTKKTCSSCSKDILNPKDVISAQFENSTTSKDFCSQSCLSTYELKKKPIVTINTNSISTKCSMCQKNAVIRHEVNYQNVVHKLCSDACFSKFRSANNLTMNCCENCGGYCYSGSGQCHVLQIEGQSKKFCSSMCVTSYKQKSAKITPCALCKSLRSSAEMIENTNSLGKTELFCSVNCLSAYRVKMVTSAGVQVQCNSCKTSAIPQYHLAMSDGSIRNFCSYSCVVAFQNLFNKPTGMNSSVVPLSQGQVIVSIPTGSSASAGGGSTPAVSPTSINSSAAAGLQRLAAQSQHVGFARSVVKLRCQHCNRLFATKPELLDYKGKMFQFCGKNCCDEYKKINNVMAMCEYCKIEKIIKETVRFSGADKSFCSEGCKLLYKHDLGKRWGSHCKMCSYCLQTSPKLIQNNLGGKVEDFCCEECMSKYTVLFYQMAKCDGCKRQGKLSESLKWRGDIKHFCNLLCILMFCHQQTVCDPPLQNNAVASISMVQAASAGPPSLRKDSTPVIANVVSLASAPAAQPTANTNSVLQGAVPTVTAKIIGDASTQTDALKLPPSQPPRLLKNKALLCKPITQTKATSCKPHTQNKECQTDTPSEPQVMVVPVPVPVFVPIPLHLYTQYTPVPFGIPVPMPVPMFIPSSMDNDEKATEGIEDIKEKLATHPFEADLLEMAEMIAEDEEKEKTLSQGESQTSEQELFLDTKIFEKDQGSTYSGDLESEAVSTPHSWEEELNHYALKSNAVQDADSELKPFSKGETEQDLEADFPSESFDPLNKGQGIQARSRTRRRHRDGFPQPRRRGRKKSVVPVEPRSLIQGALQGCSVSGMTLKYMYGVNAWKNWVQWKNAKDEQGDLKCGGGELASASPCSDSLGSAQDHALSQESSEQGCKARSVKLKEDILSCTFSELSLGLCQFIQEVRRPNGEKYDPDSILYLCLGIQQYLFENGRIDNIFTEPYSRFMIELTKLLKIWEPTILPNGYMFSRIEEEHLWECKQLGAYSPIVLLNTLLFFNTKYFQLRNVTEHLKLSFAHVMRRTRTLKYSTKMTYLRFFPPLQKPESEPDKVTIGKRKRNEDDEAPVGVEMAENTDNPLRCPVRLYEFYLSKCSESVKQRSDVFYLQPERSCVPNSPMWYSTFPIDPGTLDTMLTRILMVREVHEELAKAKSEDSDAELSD
UniProt A2AWL7: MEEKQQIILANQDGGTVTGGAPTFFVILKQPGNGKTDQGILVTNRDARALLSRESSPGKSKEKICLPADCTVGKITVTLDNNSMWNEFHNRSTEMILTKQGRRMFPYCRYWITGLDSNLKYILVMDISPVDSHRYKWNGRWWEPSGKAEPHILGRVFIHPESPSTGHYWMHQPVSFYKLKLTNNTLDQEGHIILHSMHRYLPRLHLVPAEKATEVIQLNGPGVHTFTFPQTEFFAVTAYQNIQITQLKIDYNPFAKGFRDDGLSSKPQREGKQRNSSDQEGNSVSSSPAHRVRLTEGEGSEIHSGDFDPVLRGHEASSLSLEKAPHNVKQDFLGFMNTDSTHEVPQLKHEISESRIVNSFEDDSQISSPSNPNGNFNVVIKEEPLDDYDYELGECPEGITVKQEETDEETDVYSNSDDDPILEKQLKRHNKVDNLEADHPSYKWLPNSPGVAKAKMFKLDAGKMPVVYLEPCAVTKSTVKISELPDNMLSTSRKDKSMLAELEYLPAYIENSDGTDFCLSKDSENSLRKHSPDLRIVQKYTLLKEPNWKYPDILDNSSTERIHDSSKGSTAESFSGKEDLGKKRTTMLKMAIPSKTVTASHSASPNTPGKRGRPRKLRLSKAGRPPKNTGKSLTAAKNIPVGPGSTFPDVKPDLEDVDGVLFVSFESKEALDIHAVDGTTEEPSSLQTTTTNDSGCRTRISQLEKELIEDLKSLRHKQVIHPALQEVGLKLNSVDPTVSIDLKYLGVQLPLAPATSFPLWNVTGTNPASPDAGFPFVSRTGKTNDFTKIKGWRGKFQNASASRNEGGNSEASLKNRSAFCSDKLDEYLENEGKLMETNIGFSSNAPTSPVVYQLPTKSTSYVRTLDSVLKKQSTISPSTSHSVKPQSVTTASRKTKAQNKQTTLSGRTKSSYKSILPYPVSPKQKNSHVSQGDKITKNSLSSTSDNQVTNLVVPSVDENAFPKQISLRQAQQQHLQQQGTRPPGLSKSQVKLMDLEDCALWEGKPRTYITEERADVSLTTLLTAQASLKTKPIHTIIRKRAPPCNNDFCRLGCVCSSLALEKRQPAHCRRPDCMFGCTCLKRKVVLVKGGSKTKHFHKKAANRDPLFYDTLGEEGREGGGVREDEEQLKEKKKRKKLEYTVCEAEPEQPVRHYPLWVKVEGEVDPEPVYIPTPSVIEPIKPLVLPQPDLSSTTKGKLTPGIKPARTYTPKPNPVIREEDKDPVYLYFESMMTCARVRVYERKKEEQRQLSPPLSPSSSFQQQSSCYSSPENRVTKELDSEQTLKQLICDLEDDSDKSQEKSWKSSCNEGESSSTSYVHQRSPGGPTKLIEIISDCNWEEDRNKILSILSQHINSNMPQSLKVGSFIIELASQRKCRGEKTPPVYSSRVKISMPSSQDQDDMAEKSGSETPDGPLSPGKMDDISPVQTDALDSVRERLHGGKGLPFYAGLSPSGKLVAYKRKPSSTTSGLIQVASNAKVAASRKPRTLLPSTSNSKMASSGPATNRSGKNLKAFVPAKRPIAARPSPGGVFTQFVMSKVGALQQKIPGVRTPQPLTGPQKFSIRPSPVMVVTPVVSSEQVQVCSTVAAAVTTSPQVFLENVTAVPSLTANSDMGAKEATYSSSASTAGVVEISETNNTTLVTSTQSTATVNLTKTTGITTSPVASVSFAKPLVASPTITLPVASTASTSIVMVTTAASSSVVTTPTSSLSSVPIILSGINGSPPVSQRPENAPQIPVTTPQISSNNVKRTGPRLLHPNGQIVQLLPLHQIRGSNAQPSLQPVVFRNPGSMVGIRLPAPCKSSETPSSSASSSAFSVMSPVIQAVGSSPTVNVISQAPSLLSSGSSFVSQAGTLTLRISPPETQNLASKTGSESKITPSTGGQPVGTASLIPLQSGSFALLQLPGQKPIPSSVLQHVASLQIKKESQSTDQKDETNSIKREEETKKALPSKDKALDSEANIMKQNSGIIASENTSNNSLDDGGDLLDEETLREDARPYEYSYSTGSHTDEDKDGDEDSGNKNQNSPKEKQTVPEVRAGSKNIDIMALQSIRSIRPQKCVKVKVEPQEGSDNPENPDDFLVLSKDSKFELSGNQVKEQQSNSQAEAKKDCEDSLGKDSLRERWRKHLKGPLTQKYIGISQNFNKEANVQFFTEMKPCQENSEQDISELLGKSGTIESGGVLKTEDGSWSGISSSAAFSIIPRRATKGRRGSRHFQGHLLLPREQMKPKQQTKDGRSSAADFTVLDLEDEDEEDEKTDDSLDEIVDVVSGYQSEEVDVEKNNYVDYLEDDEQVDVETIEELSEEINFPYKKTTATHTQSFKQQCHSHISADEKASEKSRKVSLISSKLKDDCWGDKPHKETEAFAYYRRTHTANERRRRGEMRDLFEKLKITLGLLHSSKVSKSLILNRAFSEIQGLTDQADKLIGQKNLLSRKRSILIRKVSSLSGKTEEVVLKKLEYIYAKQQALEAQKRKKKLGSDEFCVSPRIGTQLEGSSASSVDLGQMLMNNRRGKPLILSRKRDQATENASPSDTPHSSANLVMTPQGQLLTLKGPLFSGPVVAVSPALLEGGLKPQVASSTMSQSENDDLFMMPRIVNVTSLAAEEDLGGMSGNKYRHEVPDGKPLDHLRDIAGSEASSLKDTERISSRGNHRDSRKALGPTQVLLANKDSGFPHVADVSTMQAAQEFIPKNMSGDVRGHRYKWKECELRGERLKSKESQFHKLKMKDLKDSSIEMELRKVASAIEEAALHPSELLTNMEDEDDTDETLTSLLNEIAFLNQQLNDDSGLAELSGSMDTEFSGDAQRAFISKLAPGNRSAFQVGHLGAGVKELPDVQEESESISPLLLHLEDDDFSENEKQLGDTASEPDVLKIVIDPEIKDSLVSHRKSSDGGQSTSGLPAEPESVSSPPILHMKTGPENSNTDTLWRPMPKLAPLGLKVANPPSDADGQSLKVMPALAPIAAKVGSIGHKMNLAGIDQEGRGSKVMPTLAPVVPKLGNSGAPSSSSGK

To fix the notation:
T1: GST-tagged FNIII domain of mouse ATF7IP (mouse) (UniProt Q7TT18)
T1 sequence: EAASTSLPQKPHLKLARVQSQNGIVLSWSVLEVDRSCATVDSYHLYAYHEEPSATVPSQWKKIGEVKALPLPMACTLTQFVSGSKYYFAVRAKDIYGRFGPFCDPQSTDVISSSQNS

B1: endogenous Cpsf2 (mESC nuclear lysate) (protein, UniProt O35218 1-782)
chain: MTSIIKLTTLSGVQEESALCYLLQVDEFRFLLDCGWDEHFSVDIIDSLRKHVHQIDAVLLSHPDPLHLGALPFAVGKLGLNCAIYATIPVYKMGQMFMYDLYQSRHNTEDFTLFTLDDVDAAFDKIQQLKFSQIVNLKGKGHGLSITPLPAGHMIGGTIWKIVKDGEEEIVYAVDFNHKREIHLNGCSLEMLSRPSLLITDSFNATYVQPRRKQRDEQLLTNVLETLRGDGNVLIAVDTAGRVLELAQLLDQIWRTKDAGLGVYSLALLNNVSYNVVEFSKSQVEWMSDKLMRCFEDKRNNPFQFRHLSLCHGLSDLARVPSPKVVLASQPDLECGFSRDLFIQWCQDPKNSIILTYRTTPGTLARFLIDNPTEKVTEIELRKRVKLEGKELEEYVEKEKLKKEAAKKLEQSKEADIDSSDESDVEEDVDQPSAHKTKHDLMMKGEGSRKGSFFKQAKKSYPMFPAPEERIKWDEYGEIIKPEDFLVPELQATEEEKSKLESGLTNGEEPMDQDLSDVPTKCVSATESIEIKARVTYIDYEGRSDGDSIKKIINQMKPRQLIIVHGPPEASQDLAECCRAFGGKDIKVYMPKLHETVDATSETHIYQVRLKDSLVSSLQFCKAKDAELAWIDGVLDMRVSKVDTGVILEEGELKDDGEDSEMQVDAPSDSSAMAQQKAMKSLFGEDEKELGEETEIIPTLEPLPPHEVPGHQSVFMNEPRLSDFKQVLLREGIQAEFVGGVLVCNNQVAVRRTETGRIGLEGCLCQDFYRIRDLLYEQYAIV
B2: endogenous ZMYM2 (mESC nuclear lysate) (protein, UniProt Q9CU65 1-1376)
chain: MDTSSVGTLELTDQTPVLLGSTAMATSLTNVGNSFSGPPNPLVSRSSKFQNSSVEDDDDVVFIEPVQPPPSSAPLVADQRPITFTSSKNEELQGNDPKILPSSKELAPQKGSVSETIVIDDEEDMETNQGQEKSSSNFIERRPSETKNRTNDVDFSSSTFSRSKVNAGVSNSGITTEPDSEIQIANVTTLETGVSSVSDGQLESTDGRDMNLMITHVTSLHNTSLGDGSNGLQSSNFGVNIQTYTPSLTSQTKAGVGPFNPGRMNVAGDVFQNGESAPHHNPDSWISQSASFPRNQKQQGVDSLSPVASLPKQIFQPSNQQPTKPVKVTCANCKKPLQKGQTAYQRKGSAHLFCSTTCLSSFSHKPAPKKLCVMCKKDITTMKGTIVAQVDSSESFQEFCSTSCLSLYEDKQSPAKGALNKSRCTICGKLTEIRHEVSFKNMTHKLCSDHCFNRYRMANGLIMNCCEQCGEYLPSKGAGNNVLVVDGQQKRFCCQSCVTEYKQVGSHPSFLKEVRDHMQDSFLMQPEKYGKLTTCTGCRTQCRFFDMTQCIGPNGYMEPYCSTACMNSHKTKYAKSQSLGIICHFCKRNSLPQYQATMPDGKLYNFCNSSCVAKFQALSMQSSPNGQFVAPSDIQLKCNYCKNSFCSKPEILEWENKVHQFCSKTCSDDYKKLHCIVTYCEYCQEEKTLHETVNFSGVKRPFCSEGCKLLYKQDFARRLGLRCVTCNYCSQLCKKGATKELDGVVRDFCSEDCCKKFQEWYYKAARCDCCKSQGTLKERVQWRGEMKHFCDQHCLLRFYCQQNEPNMTTQKGPENLHYDQGCQTSRTKMTGSAPPPSPTPNKEMKNKAILCKPLTMTKATYCKPHMQTKSCQTDENWKTEYVPVPIPVPVYVPVPMHMYSQNIPVPTTVPVPVPVPVFLPAPLDSSEKIPATVEDLKSKVSSDPLDSELLTMTDMMTEEEGKAEASNINSVIIETDIIGSDLTKNSDPDIQSNMPDVPYEPDLDIEIDFPRAAEELDMENEFLLPPVFGEEYEEQPRPRSKKKGTKRKAVSGYQSHDDSSDNSECSFPFKYTYGVNAWKHWVKTRQLDEDLLVLDELKSSKSVKLKEDLLSHTTAELNYGLAHFVNEIRRPNGENYAPDSIYYLCLGIQEYLCGSNRKDNIFIDPGYQMFEQELNKILRSWQPSILPDGSIFSRVEEDYLWRIKQLGSHSPVALLNTLFYFNTKYFGLKTVEQHLRLSFGTVFRHWKKNPLTMENKACLRYQVSSLCGTDNEDKIATGKRKHEDDEPVFEQVENTANPSRCPVKMFECYLSKSPQNLNQRMDVFYLQPECSSSTDSPVWYTSTSLDRNTLENMLVRVLLVKDIYDKDNYELDEDTD
B3: endogenous Cstf2t (mESC nuclear lysate) (protein, UniProt Q8C7E9 1-632)
chain: MSSLAVRDPAMDRSLRSVFVGNIPYEATEEQLKDIFSEVGSVVSFRLVYDRETGKPKGYGFCEYQDQETALSAMRNLNGREFSGRALRVDNAASEKNKEELKSLGPAAPIIDSPYGDPIDPEDAPESITRAVASLPPEQMFELMKQMKLCVQNSHQEARNMLLQNPQLAYALLQAQVVMRIMDPEIALKILHRKIHVTPLIPGKSQPVSGPGPGGPGPSGPGGPGPGPAPGLCPGPNVMLNQQNPPAPQPQHLPRRPVKDIPPLMQTSIQGGIPAPGPIPAAVPGPGPGSLTPGGAMQPQVGMPVVGPVPLERGQMQISDPRPPMPRGPMPSGGIPPRGLLGDAPNDPRGGTLLSVTGEVEPRGYMGPPHQGPPMHHGHDNRGPASHDMRGGPLAADPRMLIGEPRGPMIDQRGLPMDGRGGRESRGMETRPMETEVLEPRGMERRMETCAMETRGMDARGLEMRGPGPSSRGPMTGGIQGPGPINMGAGGPQGPRQVPNIAGVGNPGGTMQGAGIQGGGMQGAGMQGGGMQGAGMQGGGMQGAGMQAGMQGASMQGGMQGAGMQGASKQGGGQPSSFSPGQSQVTPQDQEKAALIMQVLQLTADQIAMLPPEQRQSILILKEQIQKSTGAS
B4: endogenous ZFP518A (mESC nuclear lysate) (protein, UniProt B2RRF6 1-1478)
chain: MPFEQTQLFCDEKPTILKKLDTRNEIADTIRSVSTSKISETSFQYVLKDVNICLPKINIPNEILMKHEVEKYRLLFQSKPQTARKSISVKTVSCAEECVLLCKSERAEDETVNMSAKILNFSCSKCQDSTQYSPNDLQKHFEMWHHGELPSFPCEMCSFSASDFQIFKQHRKTHRNTFVKCDICNSERSYTLLDLTKHFTSKHCVNGNFQCEECRFFTQDVGTFVQHIHRHKEVHYKCGKCHHLCFTKGELQKHLRVHSGTLPFTCHYCSYGAIHKDQLIRHVITLHKEHLYAKEKLERDQYDKRVAKTTTTGLKLILKRYKIGPTKTFWKRKTITSGNDESIGKNAQAFNIVSKTQTKSEDQSQEQVNGEKGEKQHCENGDKPVESESEKATVLSTGQYNKADEGASTTSSSVLSAVQGPTVLLVRNNKITIPANYSAKFMGFKMVDGRQHIVIKLLPANKQILPSPVLQSNTEKNSTANLSPQAVANTGFATGLTTKVNDTDFVKAAPPACSSPVLARKVISEKEAAFISEKNNTLQMVDDSKSLSSLPTTSTTSVRVTTKVEARDNVDLWENDSPQSHPDASDTSISSPDKVSLTPKPNAYSSGDMHNYCINYVNSELPAESSNSFEFSNQGSLPFHNYSKVNNKRRRFSRATLCENLQKESPNKTVTQQSTSDSDTASPLLRKESSNSDNLFASINPLNGTLKIKTEIEEPYNLEETQNFNEQSLFTNENQNLLNVTEEPKWNDIPSAGSPMMPRITSVFSLQSEQASEFLTPEVNQLLQDTLKPKSDIKEDSNNIPSKNLPFDCDQTLKKSEEVVIKSSKDFQMQDDIPVPSASVGVNVPANDLNSKCNGQEKQGLSVLQDVRDSEVTTKIPNIITLLKTQSDAIITQQLVKDKLRTTTQNSGPVYVQNPFLTSEQKNPVFVQTPKGFIIPLHVANKPGLHVFSGRPVPLVNTRSVPATLLVNKKPGMLLATNNGKPESVPTVKTENVHSYGTVTKEPCKTPFLKAEHNNSCLTPGLCSSIGNCVNMKTCSENTLPLKGSYIIKTSVNSSVKAVPNILPEQQGPKMNILDTVKQQNENLPKASLYTLMPDGKQAVFFKCVMPNNTKLLKPKLVQSSTYQHIQPKRPAGAPQKILVKIFNPVLSMSAFNNLSASNSASSFQKEIVPSKPTVHGEQKEPETSRNALPVLVHGLMPANETVHSSTTACPGSSEEPVYISERSETRVLRGKANCAVERNFNKRKTCKNKFAKIKTRIDQDSETAFVSRNRSCKRKYIDNYQEPPRKKSTLNRKGKERASAEDVQEAFGFSRPRLPKDSSRTLRLFPFSSKQLVKCPRRNQPVVVLNHPDADTPEVERVMKTIAKFNGHVLKVSLSQTTINALLKPVSNTSETTYNDFSKRQKMLKPVNSVKERFVLKLTLKKTSKNNYQIVKTTSEDVLKSQFNCWFCGRVFDNQDVWAGHGQRHLVEATRDWNMLE

No constants are given. Whether binding was seen depends on the method and setting. Binding seen in cells or lysates may run through a third protein. Here binding means that the protein was enriched with, or labelled near, the bait; the list need not be complete. Sequences can lack the tags named with a protein.

The target of the test is T1, GST-tagged FNIII domain of mouse ATF7IP (mouse). In words: affinity purification with mass spectrometry; GST-tagged FNIII domain immobilised on Glutathione 4B sepharose (2 µg protein/10 µL beads), incubated with the nuclear fraction of Atf7ip KO mESCs in normal-lysis buffer (150 mM NaCl, 1% NP-40) at 4 °C overnight; bound proteins identified by LC-MS/MS; only the target purified.
In the case of “endogenous KIAA1551 (mESC nuclear lysate) (from UniProt Q5DTW7 1-1521)”, the binding result is “binds”. Under “endogenous Hdac2 (mESC nuclear lysate) (from UniProt P70288 1-488)” stands “binds”; under “endogenous ZMYM4 (mESC nuclear lysate) (from UniProt A2A791 1-1549)”, “binds”; under “endogenous MGA (mESC nuclear lysate) (from UniProt A2AWL7 1-3003)”, “binds”. Under “endogenous Hdac1 (mESC nuclear lysate) (from UniProt O09106 1-482)” stands “binds”; under “endogenous Rcor2 (mESC nuclear lysate) (from UniProt Q8C796 1-523)”, “binds”. On to B1, for which the binding result is reported as “binds”. Regarding B2, the binding result is recorded as “binds”. To B3 belongs “binds”. Under B4 stands “binds”.
